In paper PMC9160049, “Cryo-EM structures of Gid12-bound GID E3 reveal steric blockade as a mechanism inhibiting substrate ubiquitylation” (Nature Communications, 2022):
These are yes or no findings as the source states them, for the method shown. In cells and extracts the contact can be indirect. Here binding means that the protein was enriched with, or labelled near, the bait; the list need not be complete. Where a sequence is shown, tags or fusion partners need not be part of it.

T1: 3×HA-Gid4 (endogenously N-terminally HA-tagged Gid4) (S. cerevisiae (endogenous in BY4741)) (UniProt P38263)
T1 sequence: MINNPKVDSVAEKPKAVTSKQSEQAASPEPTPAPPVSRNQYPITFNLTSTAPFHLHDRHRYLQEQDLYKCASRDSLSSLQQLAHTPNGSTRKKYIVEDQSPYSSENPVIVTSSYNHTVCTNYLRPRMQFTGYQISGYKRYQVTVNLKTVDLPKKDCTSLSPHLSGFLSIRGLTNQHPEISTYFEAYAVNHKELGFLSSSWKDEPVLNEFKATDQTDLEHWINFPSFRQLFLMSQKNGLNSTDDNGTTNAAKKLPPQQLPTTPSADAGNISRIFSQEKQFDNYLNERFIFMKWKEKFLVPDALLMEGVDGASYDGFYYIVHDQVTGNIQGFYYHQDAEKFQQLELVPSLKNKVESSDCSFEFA

T2: Gid12-3×FLAG (endogenously C-terminally triple FLAG-tagged Ipf1) (S. cerevisiae (endogenous in BY4741)) (UniProt Q12027)
T2 sequence: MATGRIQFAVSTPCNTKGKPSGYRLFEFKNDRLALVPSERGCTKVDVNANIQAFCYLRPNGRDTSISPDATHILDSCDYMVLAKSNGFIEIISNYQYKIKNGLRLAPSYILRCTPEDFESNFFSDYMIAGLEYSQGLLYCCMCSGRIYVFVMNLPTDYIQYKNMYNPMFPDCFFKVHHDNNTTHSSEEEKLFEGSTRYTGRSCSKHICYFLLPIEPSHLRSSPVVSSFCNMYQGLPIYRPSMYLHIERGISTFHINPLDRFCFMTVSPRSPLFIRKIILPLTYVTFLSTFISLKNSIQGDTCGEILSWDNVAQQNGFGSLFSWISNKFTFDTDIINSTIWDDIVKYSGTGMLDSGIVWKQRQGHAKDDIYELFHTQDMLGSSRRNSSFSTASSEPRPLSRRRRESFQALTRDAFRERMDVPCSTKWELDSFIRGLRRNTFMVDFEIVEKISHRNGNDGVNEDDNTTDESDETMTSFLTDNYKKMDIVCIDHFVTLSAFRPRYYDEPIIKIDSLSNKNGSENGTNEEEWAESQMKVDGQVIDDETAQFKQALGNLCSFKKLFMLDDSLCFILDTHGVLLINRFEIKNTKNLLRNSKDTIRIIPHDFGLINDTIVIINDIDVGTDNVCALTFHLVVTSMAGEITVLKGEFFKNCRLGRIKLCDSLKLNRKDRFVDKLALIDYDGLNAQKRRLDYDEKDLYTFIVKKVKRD

B1: Gid2 (protein, UniProt Q12508 1-421)
chain: MSELLDSFETEFAKFYTDSNLEETNLQKCLDHTHEFKSQLKKLKAHLNKHIQESKPEVYNKLSDKEKQKFKRKRELIIEKLSKSQRQWDHSVKKQIKYVSQQSNRFNKSTLNKLKEFDIDSVYVNKLPKETMENVNEAIGYHILRYSIDNMPLGNKNEAFQYLKDVYGITNKESTEFIEMGQIVHDLKKGDTESCLKWCSNEMESLSSNHTALSSLKFDLYTLSAMQIVKHGNPVELYYQITQNAPLDCFRHREKELMQNVVPLLTKSLIGQPIEDIDSKVNKELKECTSLFIKEYCAAKHIFFDSPLFLIVLSGLISFQFFIKYKTIRELAHVDWTTKDELPFDVKLPDFLTHFHPIFICPVLKEETTTENPPYSLACHHIISKKALDRLSKNGTITFKCPYCPVNTSMSSTKKVRFVML
B2: Gid1 (protein, UniProt P53076 1-958)
chain: MSEYMDDVDREFINCLFPSYLLQQPVAYDLWILYLQHRKLFHKLKNTNLINADENPTGVGMGRTKLTALTRKEIWSKLMNLGVLGTISFEAVNDDYLIQVYKYFYPDVNDFTLRFGVKDSNKNSVRVMKASSDMRKNAQELLEPVLSEREMALNSNTSLENDRNDDDDDDDDDDDDDDDDDDDDDESDLESLEGEVDTDTDDNNEGDGSDNHEEGGEEGSRGADADVSSAQQRAERVADPWIYQRSRSAINIETESRNLWDTSDKNSGLQYYPPDQSPSSSFSSPRVSSGNDKNDNEATNVLSNSGSKKKNSMIPDIYKILGYFLPSRWQAQPNNSLQLSQDGITHLQPNPDYHSYMTYERSSASSASTRNRLRTSFENSGKVDFAVTWANKSLPDNKLTIFYYEIKVLSVTSTESAENSNIVIGYKLVENELMEATTKKSVSRSSVAGSSSSLGGSNNMSSNRVPSTSFTMEGTQRRDYIYEGGVSAMSLNVDGSINKCQKYGFDLNVFGYCGFDGLITNSTEQSKEYAKPFGRDDVIGCGINFIDGSIFFTKNGIHLGNAFTDLNDLEFVPYVALRPGNSIKTNFGLNEDFVFDIIGYQDKWKSLAYEHICRGRQMDVSIEEFDSDESEEDETENGPEENKSTNVNEDLMDIDQEDGAAGNKDTKKLNDEKDNNLKFLLGEDNRFIDGKLVRPDVNNINNLSVDDGSLPNTLNVMINDYLIHEGLVDVAKGFLKDLQKDAVNVNGQHSESKDVIRHNERQIMKEERMVKIRQELRYLINKGQISKCINYIDNEIPDLLKNNLELVFELKLANYLVMIKKSSSKDDDEIENLILKGQELSNEFIYDTKIPQSLRDRFSGQLSNVSALLAYSNPLVEAPKEISGYLSDEYLQERLFQVSNNTILTFLHKDSECALENVISNTRAMLSTLLEYNAFGSTNSSDPRYYKAINFDEDVLNL
B3: Gid4 (protein, UniProt P38263 1-362)
chain: T1 sequence
B4: Gid5 (protein, UniProt P40547 1-921)
chain: MTVAYSLENLKKISNSLVGDQLAKVDYFLAPKCQIFQCLLSIEQSDGVELKNAKLDLLYTLLHLEPQQRDIVGTYYFDIVSAIYKSMSLASSFTKNNSSTNYKYIKLLNLCAGVYPNCGFPDLQYLQNGFIQLVNHKFLRSKCKIDEVVTIIELLKLFLLVDEKNCSDFNKSKFMEEEREVTETSHYQDFKMAESLEHIIVKISSKYLDQISLKYIVRLKVSRPASPSSVKNDPFDNKGVDCTRAIPKKINISNMYDSSLLSLALLLYLRYHYMIPGDRKLRNDATFKMFVLGLLKSNDVNIRCVALKFLLQPYFTEDKKWEDTRTLEKILPYLVKSFNYDPLPWWFDPFDMLDSLIVLYNEITPMNNPVLTTLAHTNVIFCILSRFAQCLSLPQHNEATLKTTTKFIKICASFAASDEKYRLLLLNDTLLLNHLEYGLESHITLIQDFISLKDEIKETTTESHSMCLPPIYDHDFVAAWLLLLKSFSRSVSALRTTLKRNKIAQLLLQILSKTYTLTKECYFAGQDFMKPEIMIMGITLGSICNFVVEFSNLQSFMLRNGIIDIIEKMLTDPLFNSKKAWDDNEDERRIALQGIPVHEVKANSLWVLRHLMYNCQNEEKFQLLAKIPMNLILDFINDPCWAVQAQCFQLLRNLTCNSRKIVNILLEKFKDVEYKIDPQTGNKISIGSTYLFEFLAKKMRLLNPLDTQQKKAMEGILYIIVNLAAVNENKKQLVIEQDEILNIMSEILVETTTDSSSNGNDSNLKLACLWVLNNLLWNSSVSHYTQYAIENGLEPGHSPSDSENPQSTVTIGYNESVAGGYSRGKYYDEPDGDDSSSNANDDEDDDNDEGDDEGDEFVRTPAAKGSTSNVQVTRATVERCRKLVEVGLYDLVRKNITDESLSVREKARTLLYHMDLLLKVK
B5: Gid7 (protein, UniProt P25569 1-745)
chain: MSHTNKIAYVLNNDTEETASPSSVGCFDKKQLTKLLIHTLKELGYDSAANQLLLESGGYQNESNHIQTFFKLIKTGQFHLINWQIVCSLPLAHSSPLRSEWLQRLLIPTPTPATTSLFDHMLLQLQYLQQLMSSVNSSTCSDAEIATLRNYVEIMILVNRQIFLEFFHPVTNSASHKGPHTALPVLYLRKILKNFIEIWDSLLVSNDQFLNEENIFNPETTLRELSTYLTNPKLTAQLNLERDHLIDAISKYIDPNELVPKGRLLHLLKQAIKYQQSQDIFNIIDPDDDASFSSPPHRINLLQDNFSHDLTVTFQEWKTIQDTTDEIWFLTFSPNGKYLASATSESSRGYFITVYDVEQDFKIYKTCVSLSQSVLYLMFSPDSRYLVACPFSEDVTIYDMNATSLPDASATDSFLLYPSTRLSPMDSFKLDTTTYPDDTESSASSSSRPANANSNQSRVWCCDAFHTAERAGWMVVGSPDREAIVHSLTTKESLFSLKGRTCIALGHDENISGRKSIDPAKVLYKPTSSNGNWQYVEDDETFPRVHDVKISYDDKYVLLMTHQGVIDVYDFSGFPSKEELSKQTVDPKNFLIPRIARLDVGKNMTCISLPLNTTHQGFHRQQISESQHLVLVSLQDNELQMWDYKENILIQKYFGQKQQHFIIRSCFAYGNKLVMSGSEDGKIYIWDRIRGNLVSVLSGHSTVMSNSTKPMGKNCNVVASNPADKEMFASGGDDGKIKIWKISRN
B6: Gid9 (protein, UniProt P40492 1-516)
chain: MAEKSIFNEPDVDFHLKLNQQLFHIPYELLSKRIKHTQAVINKETKSLHEHTAALNQIFEHNDVEHDELALAKITEMIRKVDHIERFLNTQIKSYCQILNRIKKRLEFFHELKDIKSQNSGTSHNGNNEGTRTKLIQWYQSYTNILIGDYLTRNNPIKYNSETKDHWNSGVVFLKQSQLDDLIDYDVLLEANRISTSLLHERNLLPLISWINENKKTLTKKSSILEFQARLQEYIELLKVDNYTDAIVCFQRFLLPFVKSNFTDLKLASGLLIFIKYCNDQKPTSSTSSGFDTEEIKSQSLPMKKDRIFQHFFHKSLPRITSKPAVNTTDYDKSSLINLQSGDFERYLNLLDDQRWSVLNDLFLSDFYSMYGISQNDPLLIYLSLGISSLKTRDCLHPSDDENGNQETETATTAEKEVEDLQLFTLHSLKRKNCPVCSETFKPITQALPFAHHIQSQLFENPILLPNGNVYDSKKLKKLAKTLKKQNLISLNPGQIMDPVDMKIFCESDSIKMYPT

target: T1, 3×HA-Gid4 (endogenously N-terminally HA-tagged Gid4) (S. cerevisiae (endogenous in BY4741)); assay: affinity purification with mass spectrometry; 3×HA-Gid4 on anti-HA resin, eluted with HA peptide, from BY4741 GID12-9×cMYC lysate; glycolytic conditions, ethanol starvation for 16 h or carbon recovery; iBAQ quantification

Binder | binding
B1 | binds

target: T2, Gid12-3×FLAG (endogenously C-terminally triple FLAG-tagged Ipf1) (S. cerevisiae (endogenous in BY4741)); assay: affinity purification with mass spectrometry; Gid12-3×FLAG on anti-FLAG M2 resin from BY4741 lysate, glycolytic conditions, against an untagged control strain; 200 mM NaCl, 50 mM Tris pH 7.5, 4 °C; label-free quantitative MS

Binder | binding
B2 | binds
B1 | binds
B3 | binds
B4 | binds
B5 | binds
B6 | binds
